Here are results for three molecules from article PMC7809799, “A microtubule‐LUZP1 association around tight junction promotes epithelial cell apical constriction” (The EMBO Journal, 2020).

Sequences of proteins named here, by UniProt entry; tags and fusion partners are left off. A change or cut given only in a name is not applied to a line headed by its entry.
UniProt P62141: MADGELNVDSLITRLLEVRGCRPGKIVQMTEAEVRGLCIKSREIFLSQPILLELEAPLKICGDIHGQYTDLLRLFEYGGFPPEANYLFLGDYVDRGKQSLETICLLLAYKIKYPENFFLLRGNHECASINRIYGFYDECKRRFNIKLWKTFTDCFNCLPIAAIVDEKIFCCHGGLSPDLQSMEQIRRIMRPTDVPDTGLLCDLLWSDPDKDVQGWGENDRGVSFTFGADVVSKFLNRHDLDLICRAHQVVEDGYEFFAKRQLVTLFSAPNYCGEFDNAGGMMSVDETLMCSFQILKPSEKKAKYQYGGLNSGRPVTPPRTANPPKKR

In one assay the target is T1, GFP‐LUZP1 (mouse) (UniProt Q8R4U7).
T1 sequence: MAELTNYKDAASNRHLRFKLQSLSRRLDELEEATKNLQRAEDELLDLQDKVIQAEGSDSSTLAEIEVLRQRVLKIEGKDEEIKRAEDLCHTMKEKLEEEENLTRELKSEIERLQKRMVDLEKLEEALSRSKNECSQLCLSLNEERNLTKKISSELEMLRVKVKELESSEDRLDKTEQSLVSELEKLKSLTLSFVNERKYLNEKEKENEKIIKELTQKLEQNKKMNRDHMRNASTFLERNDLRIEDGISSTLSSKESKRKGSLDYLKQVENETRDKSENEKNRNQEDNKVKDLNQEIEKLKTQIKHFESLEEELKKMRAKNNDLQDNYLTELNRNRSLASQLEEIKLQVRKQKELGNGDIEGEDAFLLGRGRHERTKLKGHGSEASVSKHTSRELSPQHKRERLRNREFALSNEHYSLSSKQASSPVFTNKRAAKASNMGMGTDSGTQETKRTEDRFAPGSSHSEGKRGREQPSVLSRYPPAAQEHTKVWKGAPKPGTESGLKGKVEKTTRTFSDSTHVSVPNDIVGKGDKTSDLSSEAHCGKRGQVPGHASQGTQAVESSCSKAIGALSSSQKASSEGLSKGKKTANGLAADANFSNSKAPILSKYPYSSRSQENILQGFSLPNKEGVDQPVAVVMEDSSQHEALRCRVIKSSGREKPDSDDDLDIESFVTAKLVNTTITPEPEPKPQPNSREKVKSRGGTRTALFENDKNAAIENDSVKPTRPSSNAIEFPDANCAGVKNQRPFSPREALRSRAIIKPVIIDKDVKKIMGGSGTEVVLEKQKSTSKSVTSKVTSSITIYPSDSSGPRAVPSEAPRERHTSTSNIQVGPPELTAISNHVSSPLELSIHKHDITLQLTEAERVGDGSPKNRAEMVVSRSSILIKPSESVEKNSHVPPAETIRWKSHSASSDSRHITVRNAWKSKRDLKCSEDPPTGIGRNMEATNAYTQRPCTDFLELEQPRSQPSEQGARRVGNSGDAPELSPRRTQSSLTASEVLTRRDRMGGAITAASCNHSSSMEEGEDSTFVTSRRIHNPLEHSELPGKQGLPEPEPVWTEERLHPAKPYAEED
Kind of assay: co-IP; HEK‐293 transiently co‐transfected with two tagged proteins; RIPA or Hypo buffer lysate adjusted to 150 mM NaCl; protein A‐Sepharose with mouse anti‐GFP or anti‐HA antibodies, RT 120 min; immunoblotting. For orientation: Immunoblotting shows a protein as a band on a membrane.

For assay [1], the target named is T2, LUZP1 (pull‐down assay with Merlin) (mouse) (UniProt Q8R4U7).
T2 sequence: T1 sequence
The assay is described as follows: pull-down; pull‐down assays between Merlin and LUZP1, immunoblotting; not described in the methods.

For assay [2], the target named is T3, LUZP1 (tagged, co‐immunoprecipitation with ZO‐1 and ZO‐2) (mouse) (UniProt Q8R4U7).
T3 sequence: T1 sequence
Kind of assay: co-IP; HEK‐293 transiently co‐transfected with two tagged proteins; RIPA or Hypo buffer lysate adjusted to 150 mM NaCl; protein A‐Sepharose with mouse anti‐GFP or anti‐HA antibodies, RT 120 min; immunoblotting.

No constants are given. Whether binding was seen depends on the method and setting. In cells and extracts the contact can be indirect. Some entries that bind do so weakly or less than the wild type. For part of these data: Sequences can lack the tags named with a protein.

For “HA‐PP1c β/δ (from UniProt P62141 1-327) (enzyme)”, the binding entry with GFP‐LUZP1 (mouse) is given as “binds”.

B1: Merlin (protein, UniProt P46662 1-596)
chain: MAGAIASRMSFSSLKRKQPKTFTVRIVTMDAEMEFNCEMKWKGKDLFDLVCRTLGLRETWFFGLQYTIKDTVAWLKMDKKVLDHDVSKEEPVTFHFLAKFYPENAEEELVQEITQHLFFLQVKKQILDEKVYCPPEASVLLASYAVQAKYGDYDPSVHKRGFLAQEELLPKRVINLYQMTPEMWEERITAWYAEHRGRARDEAEMEYLKIAQDLEMYGVNYFTIRNKKGTELLLGVDALGLHIYDPENRLTPKISFPWNEIRNISYSDKEFTIKPLDKKIDVFKFNSSKLRVNKLILQLCIGNHDLFMRRRKADSLEVQQMKAQAREEKARKQMERQRLAREKQMREEAERTRDELERRLLQMKEEATMANEALMRSEETADLLAEKAQITEEEAKLLAQKAAEAEQEMQRIKATAIRTEEEKRLMEQKVLEAEVLALKMAEESERRAKEADQLKQDLQEAREAERRAKQKLLEIATKPTYPPMNPIPPPLPPDIPSFDIIADSLSFDFKDTDMKRLSMEIEKEKVEYMEKSKHLQEQLNELKTEIEALKLKERETALDVLHSESSDRGGPSSKHNTIKKLTLQSAKSRVAFFEEL
As for B1, the binding entry in assay [1] is on record as “no binding”.

B2: ZO‐2 (co‐immunoprecipitation with LUZP1, Fig EV2G) (protein, UniProt Q9Z0U1 1-1167)
chain: MEEVIWEQYTVTLQKDSKRGFGIAVSGGRDNPHFENGETSIVISDVLPGGPADGLLQENDRVVMVNGTPMEDVLHSFAVQQLRKSGKIAAIVVKRPRKVQVAPLQGSPPLSHDDRGFEVIEEFDGRSFRSGYSERSRHSSHDMLSHSWEGNRERGRPHQRTQSRERERSRGRSLERGLDQEDYGRSRERSRGRSLERGLDRDFVSRDHSRGRSIDRDYDRDYERSYHEAYEPDYGGGYSPSYDRRAHPETRYERSRSREHLRSRSPSPESRSRHEHKGQHDPDRPIGVLLTKSKANEEYGLRLGSQIFIKEMTRTGLATKDGNLHEGDIILKINGTVTENMSLTDARKLIEKSRGKLQLVVLRDSKQTLINIPALNDSDSEVEDISEIESNRSFSPEERRQQYSDQDYHSSTEKLKERPSSREETSGRLSRMGATPTPFKSTGDITAAGVTEASREPRYQEEGPVPQPRTAPRVFLRPSPEDEAIYGPNTKMVRFKKGDSVGLRLAGGNDVGIFVAGIQEGTSAEQEGLQEGDQILKVNTQDFRGLVREDAVLYLLEIPKGETVTILAQSRADVYRDILACGRGDSFFIRSHFECEKETPQSLAFTRGEVFRVVDTLYDGKLGHWLAVRIGNELEKGLIPNKSRAEQMASVQNAQRENAGDRADFWRMRGQRSSGGVKKNLRKSREDLAAAVSVSTKFPAYEKVLLREAGFKRPVVLFGPIADIAMERLATELPDLFQTAKTEPKDAGSEKSSGVVRLNTVRQIIEQDKHALLDVTPKAVDLLNYTQWFPIVIFFNPDSRQGVKTIRQRLSPTSNKSSRKLFDQANKLKKTCSHLFTATINVNSANDGWFGSLKDSIQQQQNEAVWVSEGKMEGMDDDAEDRMSYLTAMGADYLSCDSRLISDFEDTDGEGGAYTDNELEEPAEEPLVSSITRSSEPVQHEENIRKSSPEPRAQMRRAASRDQLRDASPPPAFKPEPPKARSQNREDSFDYSKSNLPATAGSEIPGGSTKGYPPPIAAKPAFGRPILKPSTPVPMPESEEVGESTEEQEDAPRSVLGRVKIFEKMDHKAKLQRMQELQEAQNARIEIAQKHPDIYAVPIKAPKPDAGLPPHMSSRPPEPQKAPSRLYQDTRGSYGSDPEEEEYRQQLAAHSKRGYYSQPSRYRDTEL
In the case of B2, the binding entry in assay [2] was “binds”.
